# From PubChem BioAssay AID504467 (National Center for Advancing Translational Sciences (NCATS), 2011)
# In all, about 330,000 compounds went through this assay and about 7,700 (2.3%) were called active. This list was built around the results that the source calls inconclusive (neither active nor inactive); the mix of calls is not that of the screen. Calls follow the shape of the dose curve; as a rule, active = well fitted inhibition curve with a large enough effect; inconclusive = small, poorly fitted or top-dose-only effect, or effect the other way; inactive = flat fitted curve, though single readings scatter. Where the call is inconclusive, the potency comes from a doubtful curve fit.
# Assay: qHTS screen for small molecules that inhibit ELG1-dependent DNA repair in human embryonic kidney (HEK293T) cells expressing luciferase-tagged ELG1; also: nearly all actives have a fitted effect of over 55% in size
# Settings: HEK293T ELG1-luciferase reporter, luminescence, 16 h, DNA damage induced by 5-fluorouridine; series mostly up to 46.1 µM
# Method in brief: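 In this reporter screen, reduction of luminescence relative to DMSO vehicle indicated activity. Compounds and 5-fluorouridine were added together to 2,000 cells per well, incubated for 16 hr at 37 °C, then developed with ONE-Glo.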
# Potency is read from the fitted curve at half-maximal effect.
row,SMILES,Potency
1,CN(CC(=O)Nc1ccccc1Br)C(=O)c1ccc(-c2ccc(Cl)cc2)o1,active: 0.366 µM
2,COc1ccc(S(=O)(=O)n2oc(=O)cc2-c2ccccc2)cc1OC,"inconclusive: 18.4 µM [activator, partial curve]"
3,CCN(CC)CC#CC(O)(c1ccccc1)c1ccccc1,"inconclusive: 32.6 µM [inhibitor, partial curve, poor fit]"
4,CS(=O)(=O)NCCSCc1ccccc1,"inconclusive: 6.51 µM [inhibitor, single point]"
5,NC(=O)C1CCN(C(=O)COc2ccc3c(c2)oc(=O)c2ccccc23)CC1,inactive
6,COc1ccc(-c2c(-c3cc(OC)cc(OC)c3)n(C)c3ccc(-c4cnc(N)nc4)cc23)cc1,"inconclusive: 3.26 µM [inhibitor, partial curve, poor fit]"
7,CCCc1cc2c(cc1NC(=O)c1ccc(Br)cc1)OCO2,"inconclusive: 20.6 µM [activator, single point]"
8,CCn1c(SCc2nc3ccccc3s2)nnc1-c1ccccc1,"inconclusive: 16.4 µM [activator, partial curve]"
9,COc1ccc(Cn2c(C3CC3)nc3ccc(NC(C)=O)cc3c2=O)cc1,"inconclusive: 2.06 µM [activator, full curve]"
10,COc1cccc(/C=N/NC(=O)CNC(=O)c2cccs2)c1O,"inconclusive: 10.3 µM [inhibitor, partial curve, poor fit]"
11,CC(=O)N1N=C(c2ccc3ccccc3c2)OC12CCCC2,inactive
12,CC1CCCC(C)N1S(=O)(=O)c1ccc(Cl)cc1 (stereo not given),inactive
13,COc1cccc(NC(=O)[C@H](Cc2ccccc2)NC(=O)[C@@H]2Cc3ccccc3CN2)c1,"inconclusive: 25.9 µM [activator, single point]"
14,N#Cc1c(NC(=S)NC(=O)c2ccccc2)sc2c1CCCC2,"inconclusive: 8.2 µM [activator, partial curve, poor fit]"
15,Cc1ccc(OCC(O)CNC2CCCC2)cc1C (stereo not given),inactive
16,Nc1ccn(CC(=O)NCc2ccc3c(c2)OCO3)c(=O)n1,"inconclusive: 18.3 µM [activator, partial curve]"
17,CCOc1ccc(CC(=O)N/N=C/c2sccc2C)cc1,inactive
18,CC(=O)c1c(C)n(CCO)c2ccc(O)cc12,inactive
19,O=C(COc1cc(=O)n2c(n1)SCCC2)c1ccccc1,"inconclusive: 20.6 µM [activator, single point]"
20,CCOc1cc(CNc2ccc(N(C)C)cc2)cc(Br)c1OCC(=O)NC(C)(C)C,"inconclusive: 29.1 µM [activator, single point]"
21,CCc1cccc(OCC(O)Cn2c(N3CCCCC3)nc3c2c(=O)[nH]c(=O)n3C)c1 (stereo not given),"inconclusive: 23.1 µM [inhibitor, single point]"
22,Cc1ccc(NC(=S)NC2CCSc3ccccc32)cc1C (stereo not given),inactive
23,CCOC(=O)c1ccc(NC(=O)C2CCN(C(=O)c3ccc(OC)c(OC)c3)CC2)cc1,"inconclusive: 11.6 µM [inhibitor, partial curve]"
24,CC1Cc2ccccc2N1C(=O)c1cc2c(=O)n3ccccc3nc2n1C (stereo not given),"inconclusive: 16.4 µM [inhibitor, partial curve]"

# 16 entries out of the list, sorted by length of the SMILES, low to high:
row,SMILES,Potency
4,CS(=O)(=O)NCCSCc1ccccc1,"inconclusive: 6.51 µM [inhibitor, single point]"
15,Cc1ccc(OCC(O)CNC2CCCC2)cc1C (stereo not given),inactive
18,CC(=O)c1c(C)n(CCO)c2ccc(O)cc12,inactive
17,CCOc1ccc(CC(=O)N/N=C/c2sccc2C)cc1,inactive
8,CCn1c(SCc2nc3ccccc3s2)nnc1-c1ccccc1,"inconclusive: 16.4 µM [activator, partial curve]"
11,CC(=O)N1N=C(c2ccc3ccccc3c2)OC12CCCC2,inactive
10,COc1cccc(/C=N/NC(=O)CNC(=O)c2cccs2)c1O,"inconclusive: 10.3 µM [inhibitor, partial curve, poor fit]"
24,CC1Cc2ccccc2N1C(=O)c1cc2c(=O)n3ccccc3nc2n1C (stereo not given),"inconclusive: 16.4 µM [inhibitor, partial curve]"
9,COc1ccc(Cn2c(C3CC3)nc3ccc(NC(C)=O)cc3c2=O)cc1,"inconclusive: 2.06 µM [activator, full curve]"
1,CN(CC(=O)Nc1ccccc1Br)C(=O)c1ccc(-c2ccc(Cl)cc2)o1,active: 0.366 µM
5,NC(=O)C1CCN(C(=O)COc2ccc3c(c2)oc(=O)c2ccccc23)CC1,inactive
20,CCOc1cc(CNc2ccc(N(C)C)cc2)cc(Br)c1OCC(=O)NC(C)(C)C,"inconclusive: 29.1 µM [activator, single point]"
21,CCc1cccc(OCC(O)Cn2c(N3CCCCC3)nc3c2c(=O)[nH]c(=O)n3C)c1 (stereo not given),"inconclusive: 23.1 µM [inhibitor, single point]"
23,CCOC(=O)c1ccc(NC(=O)C2CCN(C(=O)c3ccc(OC)c(OC)c3)CC2)cc1,"inconclusive: 11.6 µM [inhibitor, partial curve]"
13,COc1cccc(NC(=O)[C@H](Cc2ccccc2)NC(=O)[C@@H]2Cc3ccccc3CN2)c1,"inconclusive: 25.9 µM [activator, single point]"
6,COc1ccc(-c2c(-c3cc(OC)cc(OC)c3)n(C)c3ccc(-c4cnc(N)nc4)cc23)cc1,"inconclusive: 3.26 µM [inhibitor, partial curve, poor fit]"

# In the list so far, these contain a Cl atom:
row,SMILES,Potency
1,CN(CC(=O)Nc1ccccc1Br)C(=O)c1ccc(-c2ccc(Cl)cc2)o1,active: 0.366 µM
12,CC1CCCC(C)N1S(=O)(=O)c1ccc(Cl)cc1 (stereo not given),inactive

# (next part)

row,SMILES,Potency
1,COC(=O)c1c(NC(=O)CN2CCN(c3ccccc3OC)CC2)c2cc(C)ccc2n1C,"inconclusive: 3.66 µM [inhibitor, single point]"
2,CC1=NCCN1S(=O)(=O)c1c(C(C)C)cc(C(C)C)cc1C(C)C,"inconclusive: 23.1 µM [inhibitor, single point]"
3,Cc1ccsc1C(=O)OCC(=O)NC1CCCCC1C (stereo not given),"inconclusive: 23.1 µM [activator, single point]"
4,CCOC(=O)N1CCC(NC(=O)c2ccc3nc(N4CCOCC4)sc3c2)CC1,"inconclusive: 29.1 µM [inhibitor, single point]"
5,CCOC(=O)C(=CNc1cc(C)ccc1[N+](=O)[O-])C(=O)OCC,"inconclusive: 23.1 µM [inhibitor, partial curve, poor fit]"
6,O=C(c1cccs1)C1C(c2ccc(Br)cc2)NC(=S)NC1(O)C(F)(F)F (stereo not given),"inconclusive: 16.4 µM [activator, single point]"
7,C[C@H]1O[C@@H](O[C@H]2CC[C@@]3(C)C(CC[C@]4(C)C3C=C[C@]35OC[C@@]6(CCC(C)(C)C[C@H]63)[C@@H](O)C[C@]54C)[C@]2(C)CO)[C@H](O)[C@@H](O[C@@H]2O[C@H](CO)[C@@H](O)[C@H](O)[C@H]2O)[C@H]1O (stereo not given in full),"inconclusive: 20.6 µM [activator, single point]"
8,C=CCO/N=C(\C)c1c(O)c(C)c(-c2ccccc2)n(-c2ccccc2)c1=O,"inconclusive: 14.6 µM [activator, partial curve, poor fit]"
9,CCOc1ccc(/C=C/c2c([N+](=O)[O-])c(=O)n(C)c(=O)n2C)cc1,"inconclusive: 23.1 µM [inhibitor, single point]"
10,CN(C(=O)CS(=O)(=O)c1cn(CC(=O)N2CCOCC2)c2ccccc12)c1ccccc1,inactive
11,CCC(C)c1ccc(NC(=S)NCc2cccs2)cc1 (stereo not given),"inconclusive: 0.461 µM [inhibitor, partial curve, poor fit]"
12,CCCCNC(=O)C1CCN(Cc2ccc(OCc3ccccc3)c(OC)c2)CC1,"inconclusive: 20.6 µM [activator, single point]"
13,COc1ccc(Cl)cc1NC(=O)c1nnn(CC(=O)Nc2ccc3c(c2)OCO3)c1N,"inconclusive: 29.1 µM [activator, single point]"
14,Cc1cc(C)cc(NC(=O)Cc2ccc(S(=O)(=O)N3CCCC3)s2)c1,"inconclusive: 11.2 µM [inhibitor, single point]"
15,CCNc1nc(-c2ccc(OC(F)F)cc2)c(C)s1,"inconclusive: 18.3 µM [activator, single point]"
16,CCN(Cc1ccccc1)S(=O)(=O)c1cc2[nH]c(=O)c(=O)[nH]c2cc1C,inactive
17,O=C(COC(=O)c1ccc[nH]c1=O)NCCCc1ccccc1,inactive
18,O=C(NCCN1CCOCC1)c1cc2ccccc2oc1=O,"inconclusive: 16.4 µM [activator, partial curve]"
19,CCN1CCN(c2ccc(S(=O)(=O)N3CCOCC3)cc2NC(=O)/C=C/c2ccc(OC)c(OC)c2)CC1,inactive
20,CC1CCC(NC(=O)Cn2cc3c(n2)CCCC3)CC1 (stereo not given),"inconclusive: 4.61 µM [activator, full curve]"
21,O=C(Nc1cccc(Cl)c1)Nc1ccccc1C(=O)O,"inconclusive: 3.66 µM [activator, full curve]"
22,COc1ccc(COc2cc(-c3cccc(OC)c3)nc3ccc(NC(=O)c4cccnc4)cc23)cc1,active: 2.91 µM
23,COc1ccc([N+](=O)[O-])cc1NC(=O)COC(=O)c1ccccn1,inactive
24,CCOc1ccc(/C=C(\C(=O)O)c2ccc(S(=O)(=O)N3CCCCC3)s2)cc1OC,inactive

row,SMILES,Potency
1,Oc1c(Br)cc(Br)cc1/C=N/Nc1ccc(Cl)nn1,"inconclusive: 0.411 µM [inhibitor, full curve, poor fit]"
2,O=C(NNC(=O)c1ccccc1O)c1ccc(S(=O)(=O)Nc2ccccc2)cc1,inactive
3,Cc1oc(-c2ccc(Cl)cc2)nc1CN1CCC(C(=O)NCc2ccco2)CC1,inactive
4,COc1ccccc1CNC(=O)COC(=O)c1cc(C)nc2ccccc12,"inconclusive: 4.11 µM [inhibitor, partial curve]"
5,Cc1cccc(-c2noc(CCCC(=O)NC3CCCCC3)n2)c1,"inconclusive: 29.1 µM [inhibitor, single point]"
6,CSc1ccc(CN(C)C(=O)c2ccc(S(=O)(=O)Nc3ccccc3)cc2)cc1,inactive
7,COc1ccc(NC(=O)CC(c2ccc(F)cc2)c2ccc(OC)cc2)cc1 (stereo not given),inactive
8,OC(c1cccs1)c1nccc2ccccc12 (stereo not given),inactive
9,O=[N+]([O-])c1cccc(/C([O-])=C(/C(=S)Nc2cccc3ccccc23)[n+]2ccccc2)c1,inactive
10,O=C(CCC(=O)N1CCN(c2cccc(Cl)c2)CC1)N1CCN(c2ccccc2)CC1,"inconclusive: 20.6 µM [inhibitor, partial curve, poor fit]"
11,COc1ccc(NC(=O)C2CCN(c3ncnc4c3nc3n4CCCCC3)CC2)c(OC)c1,active: 4.61 µM
12,CCOC(=O)Cc1csc(NC(=O)CN(C)S(=O)(=O)c2ccc3c(c2)CCC(=O)N3)n1,"inconclusive: 20.6 µM [inhibitor, single point]"
13,COc1ccc(NC(=O)COC(=O)c2ccc(Cl)c(S(N)(=O)=O)c2)c([N+](=O)[O-])c1,inactive
14,CC1(C)Cc2c(C#N)c(SCC(=O)c3ccccc3)nc(N3CCOCC3)c2CS1,"inconclusive: 5.17 µM [inhibitor, full curve]"
15,COc1ccccc1NC(=S)NNC(=O)c1c(Cl)c(C)nn1C,"inconclusive: 5.62 µM [inhibitor, single point]"
16,COc1cc2c(cc1OC)C(c1ccccc1)N(C(=O)CSCC(=O)O)CC2 (stereo not given),inactive
17,CN(C)CCN(C(=O)/C=C/c1cccs1)c1nc2c(F)cc(F)cc2s1,"inconclusive: 29.1 µM [inhibitor, single point]"
18,CCNC(=O)/C(C#N)=C/c1c(N2CCN(C)CC2)nc2c(C)cccn2c1=O,inactive
19,COc1ccc(C)cc1NC(=O)Nc1ccncc1,inactive
20,Cc1cc(=O)oc2cc(OC(=O)c3ccco3)ccc12,inactive
21,O=c1[nH]c2ccccc2c2ccccc12,"inconclusive: 23.1 µM [activator, single point]"
22,Cc1ccc2[nH]c(=O)c(CN(CC3CCCO3)S(=O)(=O)c3cccc4nsnc34)cc2c1 (stereo not given),"inconclusive: 25.9 µM [inhibitor, partial curve]"
